Experimental data reported in paper doi:10.1101/2024.05.26.595847.

Tested on: GST_ZOS5-09
Test: EMSA
Details: poly dI.dC; CACT to GTTC in each copy

## TGTGCAAGTTCAGCCGGATGTGCAAGTTCAGCCGGA (double strand) [2X mZF_BS]
  binding result: no binding

The exact form of at least one protein or probe is not confirmed. Negatives hold for the conditions tested.
